Test results published in PubChem BioAssay AID1471 (National Center for Advancing Translational Sciences (NCATS), 2008).
In all, about 230,000 compounds went through this assay and about 310 (0.13%) were called active. Inconclusive means that the source gave no clear call. Such entries were picked first, then a sample of the others. Calls follow the shape of the dose curve; as a rule, active = well fitted activation curve with a large enough effect; inconclusive = small, poorly fitted or top-dose-only effect; inactive = no such curve, though single readings can be large or run the other way. Potencies beside an inconclusive call are fits to weak or partial responses and may not hold up.

experiment: qHTS Multiplex Assay to Identify Dual Action Probes in a Cell Model of Huntington: Cytoprotection (ATP); settings: PC12 HTT-Q103 induced, ATP luminescence, 40 h; cytoprotection (ATP increase): at 56.4 µM (top of the series) unless noted; also: nearly all actives have a fitted effect of over 45% in size;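 as to cytoprotection (ATP increase): toxic huntingtin expression switched on by the ecdysone agonist tebufenozide; % of control where 0% means no effect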
From the text: NIH Chemical Genomics Center [NCGC]
NIH Molecular Libraries Probe Production centers Network [MLPCN]
Assay Submitter (PI): Wei Zheng
Huntington's disease is a neurodegenerative disorder caused by a trinucleotide repeat expansion in Exon 1 of the Huntingtin gene. The CAG trinucleotide encodes glutamine and polyglutamine expansions cause cell death in selective areas of the brain. Huntington polyglutamine repeats have the tendency to form aggregates which are observable in later stages of the disease. The exact nature of the aggregates, whether toxic, protective, or insignificant, is unclear.
A stable PC12 cell line containing a gene fusion of Exon 1 of the Huntingtin gene linked to GFP under the control of the inducible ecdysone promoter were used as the cell-based model of Huntington Disease for high throughput screening. Exon 1 of the Huntingtin gene contained an expansion of 103 polyglutamines (Q103) which, when expressed, caused cell death and distinct, bright GFP aggregates. The amount of cell death and the size and intensity of GFP aggregates increased over time and induction level. The cell death were quantified with a measurement of ATP content in the cells. A maximal 40-50% of cell death was observed when the Huntington gene was induced in this cell line.
We optimized this assay in a homogeneous 1536 well format. A quantitative high throughput screen (qHTS) was conducted on the PC12 cells which were induced to express the toxic fusion construct. Small molecules which prevented cell death were identified by using a luminescent ATP quantification method (Perkin Elmer's ATPlite).
PC12 cells stably containing a construct with an ecdysone inducible promoter expressing GFP fused to the exon 1 of HTTQ103 (Huntington protein which containing a 103 ployglutamine expansion) were used.
NCGC Assay Protocol Summary:
Sequence, Parameter, Description
1, Reagent, 5 uL 1500 cells/well 1536 TC treated White clear bottom plate
2, Compound, 23 nL Tebufenozide inducer (100 nM final) to all columns
3, Compound, 23 nL 40 uM to 0.5 nM Libraries
5, Reagent, 5 ul ATPLite cell death assay reagent
6, Detector, 4 sec integration with a Viewlux Luminescent
Media consisted of phenol red free DMEM + 5% equine serum (Hyclone # SH30072.03 ), 5% supplemented Bovine Calf Serum (Hyclone # SH30074.03 ), 1x pen/strep, no G418
Control columns: 1 = DMSO, 2= 2 uM teb dilns (1:1), 4 = 100 nM Teb inducer. Sample columns received 100 nM Teb.

With `N#Cc1c(C(F)(F)F)cc(-c2ccccc2)nc1SCC(=O)Nc1sc2c(c1C#N)CCC2` as the compound, how does the Potency read?
Its Potency is inconclusive: 562 nM [activator, single point].

For `Cc1cc(C)c(NC(=S)NCCCSC2CCCCC2)c(C)c1`, which Potency is on record?
The Potency was “inactive”.

With `NC1=C(c2ccc(F)cc2)C(=O)CS1` as the compound, how does the Potency read?
Its Potency is “inactive”.

Which Potency does the source give for `CCOC(=O)C1=C(CN2CCN(CCC#N)CC2)NC(=O)NC1c1ccc2c(c1)OCO2` (stereo not given) here?
Its Potency is inconclusive: 2000 nM [activator, partial curve].

With `COc1ccc(N2C=C3C(=O)C(C)(OC(=O)C4CCCC4)C(=O)C=C3C=C2c2ccsc2)cc1` (stereo not given) as the compound, how does the Potency read?
Its Potency is inconclusive: 224 nM [activator, full curve].

Which Potency does the source give for `Nc1c2ccccc2nc2c(O)cccc12` here?
Its Potency is inconclusive: 3160 nM [activator, single point].

With `CCCCC1=CC2=CC(=O)C(C)(OC(=O)CCc3ccccc3)C(=O)C2=CO1` (stereo not given) as the compound, how does the Potency read?
Its Potency is inconclusive: 2510 nM [activator, single point].

With `O=C(Oc1ccc(Cl)cc1)c1ccc2nccnc2c1` as the compound, how does the Potency read?
Its Potency is inconclusive: 1260 nM [activator, single point].

For `Cc1ccc(-n2sc3ccccc3c2=O)cc1`, which Potency is on record?
The Potency was inconclusive: 5620 nM [activator, single point].

For `CCN(/N=C/c1ccc(Cl)cc1)c1cc(=O)n(C)c(=O)[nH]1`, which cytoprotection (ATP increase) is on record?
The cytoprotection (ATP increase) was inactive: 15.1% [at 10 µM].

Which Potency does the source give for `N#CC(Sc1ccccn1)c1ccc(Cl)cc1Cl` (stereo not given) here?
Its Potency is “inactive”.

Which Potency does the source give for `COc1ccc(O[C@H]2C=C[C@@H](c3ccccc3)O[C@H]2CO/N=C(/C)CCC(=O)OC[C@@H]2O[C@H](C#Cc3ccccc3)C=C[C@@H]2Oc2ccc(C)cc2)cc1` here?
The Potency was inconclusive: 1410 nM [activator, partial curve, poor fit].

For `Cn1cccc1C(=O)N1CCC2(CCCN(C(=O)Nc3cccc(F)c3)C2)CC1`, which Potency is on record?
Its Potency is inconclusive: 7.9 nM [activator, full curve, poor fit].

Which Potency does the source give for `Cc1cccc(/C=N\NC(=O)c2csnn2)c1` here?
The Potency was “inactive”.

Which Potency does the source give for `CCOC(=O)c1ccc(NC(=O)COC(=O)Cc2csc(-c3ccccc3)n2)cc1` here?
The Potency was inconclusive: 1260 nM [activator, partial curve].

Which cytoprotection (ATP increase) does the source give for `COC(=O)c1c(NC(=O)CSc2nnc3ccccn23)sc2c1CCC2` here?
Its cytoprotection (ATP increase) is inactive: 36.1% [at 10 µM].

With `Cc1ccc(C(c2c(O)nc3n(c2=O)CCS3)c2c(O)nc3n(c2=O)CCS3)cc1` as the compound, how does the cytoprotection (ATP increase) read?
Its cytoprotection (ATP increase) is inactive: 24% [at 10 µM].

For `CC1(C)Cc2c(sc3nc4n(c(=N)c23)CCC4)CO1`, which Potency is on record?
Its Potency is inconclusive: 355 nM [activator, partial curve, poor fit].

With `Cc1ccc(C)c(-n2nnnc2SCC(=O)c2ccc3c(c2)NC(=O)CO3)c1` as the compound, how does the Potency read?
Its Potency is “inactive”.

With `Cc1ccc(Nc2nc(Oc3ccc(OCc4ccccc4)nn3)nc(N3CCOCC3)n2)cc1` as the compound, how does the Potency read?
The Potency was inconclusive: 8910 nM [activator, partial curve].

With `NS(=O)(=O)c1ccc(NC(=O)COC(=O)C2CC(=O)N(Cc3ccccc3)C2)cc1` (stereo not given) as the compound, how does the Potency read?
The Potency was inconclusive: 5 nM [activator, full curve, poor fit].

Which Potency does the source give for `CCCn1c(C)cc(-c2csc(N)n2)c1C` here?
The Potency was inconclusive: 1260 nM [activator, single point].

Which Potency does the source give for `COc1ccccc1CNc1ncncc1-c1ccc(C(=O)N(C)C)cc1` here?
Its Potency is “inactive”.

Which Potency does the source give for `Cc1ccc(C(=O)N/N=C\c2c(C)nn(-c3ccccc3)c2Cl)cn1` here?
The Potency was inconclusive: 5620 nM [activator, single point].

For `CCCCC[C@H](O)C/C=C1/C(=O)C=C[C@@H]1C/C=C\CCCC(=O)O`, which Potency is on record?
The Potency was active: 11200 nM.

For `S=C(NCCc1ccccc1)N1CCN(C(c2ccccc2)c2ccccc2)CC1`, which cytoprotection (ATP increase) is on record?
The cytoprotection (ATP increase) was inactive: 3.83% [at 10 µM].

With `COc1ccc(Sc2ncnc3onc(C)c23)cc1` as the compound, how does the Potency read?
The Potency was inconclusive: 5620 nM [activator, partial curve].

Which cytoprotection (ATP increase) does the source give for `CCC1S/C(=N\S(=O)(=O)c2cccs2)N(C2CCCCC2)C1=O` (stereo not given) here?
Its cytoprotection (ATP increase) is inactive: -24.1% [at 10 µM].

Which Potency does the source give for `CCOC(=O)[C@H](CCc1ccccc1)N[C@@H](C)C(=O)N1CCC[C@H]1C(=O)O` here?
Its Potency is inconclusive: 35500 nM [activator, single point].

With `CCN(CC)S(=O)(=O)c1ccc(N2Cc3ccccc3C2=N)cc1` as the compound, how does the Potency read?
The Potency was inconclusive: 5620 nM [activator, single point].

Which Potency does the source give for `N=C(N)c1ccc(-c2ccc(-c3ccc(C(=N)N)cc3)o2)cc1` here?
Its Potency is inconclusive: 7940 nM [activator, single point].

With `COCCn1c(SCCCc2ccccc2)nc2c1c(=O)[nH]c(=O)n2C` as the compound, how does the Potency read?
Its Potency is “inactive”.

With `CC(NC(=O)COc1ccc(Br)cc1)C(=O)O` (stereo not given) as the compound, how does the Potency read?
Its Potency is “inactive”.

Which Potency does the source give for `Cc1noc(NS(=O)(=O)c2ccc(N)cc2)c1C` here?
Its Potency is inconclusive: 447 nM [activator, single point].

With `CCc1cccc2c3c([nH]c12)C(CC)(CC(=O)O)OCC3` (stereo not given) as the compound, how does the Potency read?
The Potency was inconclusive: 1260 nM [activator, partial curve].

For `CCOC(=O)C1C(=O)N(O)CC1c1cccc(Oc2ccccc2)c1` (stereo not given), which Potency is on record?
The Potency was inconclusive: 5 nM [activator, full curve, poor fit].

With `CC(=O)c1ccc(N2CCN(c3ccc(S(=O)(=O)NCCCN(C)C)cc3[N+](=O)[O-])CC2)cc1` as the compound, how does the Potency read?
Its Potency is “inactive”.

Which Potency does the source give for `Cc1ccc(F)cc1NCC(=O)Nc1ccc(Br)cc1` here?
The Potency was inconclusive: 1260 nM [activator, single point].

For `COCc1cc(C)nc2sc(C(=O)NN)c(-n3cccc3)c12`, which Potency is on record?
The Potency was “inactive”.

With `CC1CCCCC1NC(=O)COC(=O)c1c2c(nc3ccccc13)/C(=C/c1ccco1)CC2` (stereo not given) as the compound, how does the cytoprotection (ATP increase) read?
Its cytoprotection (ATP increase) is inactive: -16.2% [at 0.074 µM].

For `Cc1c(C(=O)CN2CCSCC2)c2ccccc2n1C`, which Potency is on record?
Its Potency is inconclusive: 35500 nM [activator, single point].

Which Potency does the source give for `COc1ccc(OC)c(CNc2nc3ccccc3n2CCN2CCCCC2)c1` here?
The Potency was “inactive”.

For `COC(=O)[C@H](CC(C)C)NC(=O)NC1CCCCC1C` (stereo not given in full), which Potency is on record?
The Potency was inconclusive: 3160 nM [activator, single point].

For `C=CCNc1nc(-c2c(C)nc3sccn23)cs1`, which cytoprotection (ATP increase) is on record?
The cytoprotection (ATP increase) was inactive: 21.6% [at 10 µM].

Which Potency does the source give for `CC(=O)c1cnc(Nc2ccccc2)s1` here?
Its Potency is inconclusive: 501 nM [activator, single point].
